Some of these results come from one statement about several compounds together.
What was measured:
[1] = system: Candida krusei Strain M13C4; test: MIC of fluconazole for Candida krusei with lead compounds; format: cell-based; conditions: in the presence of the compound
C. albicans = test: Fungicidal synergy with fluconazole against C. albicans (active concentration of leads and analogs); format: cell-based, Candida albicans; conditions: azole at clinically relevant concentration (4 μg/ml)
Experimental: In summary, the performed screens of the chemical library identified a number of interesting potentiators of azole activity. Of these potentiators the inventors chose for further development two lead compounds, INF 801 and INF 802. […] Unlike compound INF 799, which is active at very low concentration (2 ng/ml, see above), INF 801 and INF 802 need to be present at relatively high concentrations to be active. When combined with high concentrations of fluconazole (16 μg/ml and more), their fungicidal activity is observed at 1.25 or 2.5 μg/ml, respectively. At concentrations of the azole that are clinically relevant (4 μg/ml), they are active only at ˜5-10 μg/ml.
Eleven structural analogs of INF 801 and fourteen analogs of INF 802 were purchased from ChemBridge, Maybridge and Aldrich and tested for activity. […] The numbers presented in these two tables indicate the -fold reduction in the number of live cells after 24 hour incubation with the combinations of azoles and potentiators. The higher the number, the higher the fungicidal activity of the combination. Note that concentrations of drags are somewhat different in the two tables, so the comparison between the two tables is not meaningful.

O=C(O)CCn1c2ccc(Cl)cc2c2cc(Cl)ccc21 [INF 801]
fold reduction of the MIC of fluconazole for C. kruzei [1]: 2-4 fold | concentration at which active (C. albicans): 5 to 10 µg/mL

O=C(O)C12c3ccccc3C(c3ccccc31)c1ccccc12 [INF 802]
fold reduction of the MIC of fluconazole for C. kruzei [1]: 2-4 fold | concentration at which active (C. albicans): 5 to 10 µg/mL

Reference: patent publication US20020193369A1, “Antifungal compounds and uses therefor” (priority 2000, published 2002)
